From PMC9856044 (Biomolecules, 2023)
Some entries repeat one wording, which the source may state once for all of them.

What follows are molecules tested on HeLa cells (assay: Confocal microscopy co-localization assay in live HeLa cells). Conditions: 1 μM compound, 60 min.
Assay type: cell-based, human

| Compound | Intracellular localization | PCC ± SD (co-localization with MitoTracker Deep Red, corrected by RBNCC) |
| --- | --- | --- |
| COc1ccc2c(c1)SC(=Cc1[se]c3ccccc3[n+]1C)N2CCCS(=O)(=O)[O-] [Compound 2, 3-(6-methoxy-2-((3-methylbenzo[d][1,3]selenazol-3-ium-2-yl)methylene)benzo[d]thiazol-3(2H)-yl)propane-1-sulfonate] | significant co-localization | 0.491 ± 0.0212 |
| C[n+]1c(C=C2Sc3ccccc3N2CCCS(=O)(=O)[O-])[se]c2ccccc21 [Compound 1, 3-(2-((3-methylbenzo[d][1,3]selenazol-3-ium-2-yl)methylene)benzo[d]thiazol-3(2H)-yl)propane-1-sulfonate] | significant co-localization | 0.675 ± 0.0297 |
| C[n+]1c(/C=C2\Sc3ccccc3N2CCS)[se]c2ccccc21 [Compound 6, 2-((3-(2-mercaptoethyl)benzo[d]thiazol-2(3H)-ylidene)methyl)-3-methylbenzo[d][1,3]selenazol-3-ium methosulphate] | significant co-localization | 0.674 ± 0.1092 |
